We go through 4 sequences from article PMC7102948.

The target in one data set is T1, 6xHis-dsRBD12 (UniProt O04492).
T1 sequence (looked up, limits assumed): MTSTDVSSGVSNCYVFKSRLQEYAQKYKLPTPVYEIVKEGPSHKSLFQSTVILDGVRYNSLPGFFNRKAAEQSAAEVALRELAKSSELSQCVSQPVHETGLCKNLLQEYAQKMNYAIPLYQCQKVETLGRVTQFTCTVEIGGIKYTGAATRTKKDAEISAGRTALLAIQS
In words: EMSA. As to conditions: 5 mM Mg2+, did not bind efficiently; 83 mM Tris pH 8 (printed 'Tris pH 8, 83 mM'), 100 mM NaCl, 66 mM KCl, 5 mM MgCl2, 5 mM DTT, 25 C, 30 min; 4% TBE gel run cold; recombinant protein; protein details: N-terminal 6xHis; label: 32P 5'-end. On the technique in general: In EMSA bound probe runs differently from free probe, usually more slowly.

Data set [1] has as its target T2, GST-AtHYL1-6xHis (Arabidopsis thaliana Col-0) (UniProt O04492).
T2 sequence (looked up, limits assumed): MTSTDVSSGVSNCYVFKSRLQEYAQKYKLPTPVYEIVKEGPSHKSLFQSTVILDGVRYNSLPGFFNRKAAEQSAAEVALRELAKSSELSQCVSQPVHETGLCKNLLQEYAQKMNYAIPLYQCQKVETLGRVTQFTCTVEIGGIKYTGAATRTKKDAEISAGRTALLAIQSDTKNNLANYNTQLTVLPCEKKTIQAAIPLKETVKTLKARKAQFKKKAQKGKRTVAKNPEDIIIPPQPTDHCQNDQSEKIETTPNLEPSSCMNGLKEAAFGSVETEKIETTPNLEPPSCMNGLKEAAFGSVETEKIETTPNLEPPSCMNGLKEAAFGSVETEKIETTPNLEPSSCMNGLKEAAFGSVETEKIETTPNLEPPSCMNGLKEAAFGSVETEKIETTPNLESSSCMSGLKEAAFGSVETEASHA
Kind of data set: EMSA. To be noted: 5 mM Mg2+; 83 mM Tris pH 8 (printed 'Tris pH 8, 83 mM'), 100 mM NaCl, 66 mM KCl, 5 mM MgCl2, 5 mM DTT, 25 C, 30 min; 4% TBE gel run cold; recombinant protein; protein details: N-terminal GST, C-terminal 6xHis; label: 32P 5'-end.

The exact form of at least one protein or probe is not confirmed. The comparison behind a weaker result is the experiment's own reference, which may not be listed here. At least one verdict was read from the data and is not stated in words by the source. Where a protein sequence is shown, tags need not be part of it.

With “UCGAACAGGGCGCCAGUGCCC / GGGCACUGCCGCCCUGUUCGA [amiR72 duplex (71% GC)]”, the binding result (with 6xHis-dsRBD12; in data set [1]) was “binds more weakly” in each case.

With “UCGAACUAGGUCUCAGUGCUC / GAGCACUGUGACCUAGUUCGA [amiR52 duplex]”, the binding result was “binds more weakly” in the data set with 6xHis-dsRBD12 and “binds” in data set [1].

Turning to “UCGAAUAAGAUACUAUACGUU / AACGUAUACUAUCUUAUUCGA [amiR28 duplex]”, the binding result (in the data set with 6xHis-dsRBD12; in data set [1]) was “binds more weakly” throughout.

Turning to “UUAUUAAUUUCGGCCCCGGCG / CGCCGGGCCCGAAAUUAAUAA [amiRscr52 duplex]”, the binding result (with 6xHis-dsRBD12; in data set [1]) was “binds more weakly” each time.
